Measurements taken from publication doi:10.1101/2024.09.11.612445 (bioRxiv, 2024).
No constants are given. Whether binding was seen depends on the method and setting. In cells and extracts the contact can be indirect. Some results given as binding are weak or reduced against the parent protein; the word gives no strength. Where a sequence is shown, tags or fusion partners need not be part of it. Each block holds one molecule with its values, some of them ahead of it.

By UniProt entry, the sequences of proteins in these tests, tags left out.
UniProt A5YKK6: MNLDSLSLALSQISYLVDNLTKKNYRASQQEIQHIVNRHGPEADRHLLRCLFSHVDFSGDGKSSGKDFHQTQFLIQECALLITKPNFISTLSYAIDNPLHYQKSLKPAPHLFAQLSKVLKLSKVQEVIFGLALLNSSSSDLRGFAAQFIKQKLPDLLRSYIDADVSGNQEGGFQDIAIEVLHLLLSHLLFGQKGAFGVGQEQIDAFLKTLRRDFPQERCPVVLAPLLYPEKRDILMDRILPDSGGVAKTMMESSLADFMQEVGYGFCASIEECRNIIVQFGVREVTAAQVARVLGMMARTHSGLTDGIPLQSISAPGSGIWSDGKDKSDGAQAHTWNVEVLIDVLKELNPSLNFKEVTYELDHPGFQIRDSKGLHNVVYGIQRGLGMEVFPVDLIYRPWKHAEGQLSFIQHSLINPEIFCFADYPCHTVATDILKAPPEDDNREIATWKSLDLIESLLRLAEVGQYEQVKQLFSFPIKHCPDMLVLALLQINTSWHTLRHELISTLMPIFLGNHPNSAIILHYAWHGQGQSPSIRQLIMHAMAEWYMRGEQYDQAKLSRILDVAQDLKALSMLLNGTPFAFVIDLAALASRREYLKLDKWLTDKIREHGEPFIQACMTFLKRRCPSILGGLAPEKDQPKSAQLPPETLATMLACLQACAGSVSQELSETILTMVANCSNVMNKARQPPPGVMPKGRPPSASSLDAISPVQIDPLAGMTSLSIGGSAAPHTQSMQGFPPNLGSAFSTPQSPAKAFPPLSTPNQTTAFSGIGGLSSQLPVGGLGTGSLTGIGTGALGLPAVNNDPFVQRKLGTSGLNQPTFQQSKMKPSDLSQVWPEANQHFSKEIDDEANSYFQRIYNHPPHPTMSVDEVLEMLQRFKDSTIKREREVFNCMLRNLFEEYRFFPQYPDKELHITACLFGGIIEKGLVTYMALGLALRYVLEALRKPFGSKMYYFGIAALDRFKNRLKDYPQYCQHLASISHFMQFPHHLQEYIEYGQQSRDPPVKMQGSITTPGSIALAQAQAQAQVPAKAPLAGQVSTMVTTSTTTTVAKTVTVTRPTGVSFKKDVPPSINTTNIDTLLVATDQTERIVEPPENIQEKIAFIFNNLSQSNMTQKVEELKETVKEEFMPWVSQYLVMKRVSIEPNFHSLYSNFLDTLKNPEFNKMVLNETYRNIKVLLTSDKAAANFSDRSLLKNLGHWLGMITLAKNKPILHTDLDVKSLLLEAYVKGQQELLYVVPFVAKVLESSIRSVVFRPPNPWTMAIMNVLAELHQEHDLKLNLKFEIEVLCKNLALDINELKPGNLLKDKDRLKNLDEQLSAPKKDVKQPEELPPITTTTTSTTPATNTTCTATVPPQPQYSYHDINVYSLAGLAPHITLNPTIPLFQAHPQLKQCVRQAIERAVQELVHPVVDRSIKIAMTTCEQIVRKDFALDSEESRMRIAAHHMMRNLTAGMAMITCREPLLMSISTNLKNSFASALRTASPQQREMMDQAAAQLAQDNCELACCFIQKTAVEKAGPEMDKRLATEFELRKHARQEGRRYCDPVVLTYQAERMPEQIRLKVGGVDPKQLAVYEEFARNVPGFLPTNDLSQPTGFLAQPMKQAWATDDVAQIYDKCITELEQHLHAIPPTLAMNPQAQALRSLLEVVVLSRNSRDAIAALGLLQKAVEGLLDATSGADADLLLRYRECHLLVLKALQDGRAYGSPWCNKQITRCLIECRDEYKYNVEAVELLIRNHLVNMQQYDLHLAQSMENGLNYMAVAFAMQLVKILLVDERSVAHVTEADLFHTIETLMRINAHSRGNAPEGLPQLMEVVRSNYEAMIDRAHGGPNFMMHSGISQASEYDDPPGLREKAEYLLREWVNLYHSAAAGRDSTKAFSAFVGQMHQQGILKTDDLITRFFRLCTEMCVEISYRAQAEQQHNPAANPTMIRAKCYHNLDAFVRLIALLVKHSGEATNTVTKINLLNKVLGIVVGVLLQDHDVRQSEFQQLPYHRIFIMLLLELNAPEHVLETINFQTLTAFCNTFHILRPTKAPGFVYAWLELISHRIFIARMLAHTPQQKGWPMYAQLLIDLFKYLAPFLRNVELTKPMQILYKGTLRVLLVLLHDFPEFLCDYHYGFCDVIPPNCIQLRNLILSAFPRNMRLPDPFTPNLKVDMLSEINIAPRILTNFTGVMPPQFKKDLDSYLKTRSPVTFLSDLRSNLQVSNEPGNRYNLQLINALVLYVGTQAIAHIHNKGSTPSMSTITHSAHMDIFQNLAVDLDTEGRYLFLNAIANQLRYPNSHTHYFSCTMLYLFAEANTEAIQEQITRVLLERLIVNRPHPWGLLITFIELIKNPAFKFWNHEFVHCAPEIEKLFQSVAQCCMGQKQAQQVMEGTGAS

Columns and labels:
[1] = biological target: T1, YFP-ANKRD17 1950-2603 wild-type (human) (UniProt O75179); experiment: co-IP
T1 sequence: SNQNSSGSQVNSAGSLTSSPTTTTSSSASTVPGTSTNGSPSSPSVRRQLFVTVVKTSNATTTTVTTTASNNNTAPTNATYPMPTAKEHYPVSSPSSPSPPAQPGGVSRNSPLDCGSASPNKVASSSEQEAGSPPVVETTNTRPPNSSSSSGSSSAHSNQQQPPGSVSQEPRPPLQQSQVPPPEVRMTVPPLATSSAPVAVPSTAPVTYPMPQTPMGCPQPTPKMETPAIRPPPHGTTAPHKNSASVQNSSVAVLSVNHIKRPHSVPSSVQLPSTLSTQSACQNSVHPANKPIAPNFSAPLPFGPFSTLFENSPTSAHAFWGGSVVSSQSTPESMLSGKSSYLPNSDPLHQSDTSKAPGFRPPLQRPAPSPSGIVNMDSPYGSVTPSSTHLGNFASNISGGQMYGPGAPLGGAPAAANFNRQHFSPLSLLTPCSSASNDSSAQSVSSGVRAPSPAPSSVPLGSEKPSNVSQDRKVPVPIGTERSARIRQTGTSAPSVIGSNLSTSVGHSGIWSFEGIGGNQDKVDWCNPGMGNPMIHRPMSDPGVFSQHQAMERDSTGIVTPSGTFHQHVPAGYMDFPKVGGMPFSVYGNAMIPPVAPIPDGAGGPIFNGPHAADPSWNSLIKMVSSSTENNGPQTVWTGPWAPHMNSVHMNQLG

[2] = biological target: T2, YFP-tagged full length CPSF1 wild-type (Cleavage and polyadenylation specificity factor subunit 1) (human) (UniProt Q10570); experiment: co-IP
T2 sequence: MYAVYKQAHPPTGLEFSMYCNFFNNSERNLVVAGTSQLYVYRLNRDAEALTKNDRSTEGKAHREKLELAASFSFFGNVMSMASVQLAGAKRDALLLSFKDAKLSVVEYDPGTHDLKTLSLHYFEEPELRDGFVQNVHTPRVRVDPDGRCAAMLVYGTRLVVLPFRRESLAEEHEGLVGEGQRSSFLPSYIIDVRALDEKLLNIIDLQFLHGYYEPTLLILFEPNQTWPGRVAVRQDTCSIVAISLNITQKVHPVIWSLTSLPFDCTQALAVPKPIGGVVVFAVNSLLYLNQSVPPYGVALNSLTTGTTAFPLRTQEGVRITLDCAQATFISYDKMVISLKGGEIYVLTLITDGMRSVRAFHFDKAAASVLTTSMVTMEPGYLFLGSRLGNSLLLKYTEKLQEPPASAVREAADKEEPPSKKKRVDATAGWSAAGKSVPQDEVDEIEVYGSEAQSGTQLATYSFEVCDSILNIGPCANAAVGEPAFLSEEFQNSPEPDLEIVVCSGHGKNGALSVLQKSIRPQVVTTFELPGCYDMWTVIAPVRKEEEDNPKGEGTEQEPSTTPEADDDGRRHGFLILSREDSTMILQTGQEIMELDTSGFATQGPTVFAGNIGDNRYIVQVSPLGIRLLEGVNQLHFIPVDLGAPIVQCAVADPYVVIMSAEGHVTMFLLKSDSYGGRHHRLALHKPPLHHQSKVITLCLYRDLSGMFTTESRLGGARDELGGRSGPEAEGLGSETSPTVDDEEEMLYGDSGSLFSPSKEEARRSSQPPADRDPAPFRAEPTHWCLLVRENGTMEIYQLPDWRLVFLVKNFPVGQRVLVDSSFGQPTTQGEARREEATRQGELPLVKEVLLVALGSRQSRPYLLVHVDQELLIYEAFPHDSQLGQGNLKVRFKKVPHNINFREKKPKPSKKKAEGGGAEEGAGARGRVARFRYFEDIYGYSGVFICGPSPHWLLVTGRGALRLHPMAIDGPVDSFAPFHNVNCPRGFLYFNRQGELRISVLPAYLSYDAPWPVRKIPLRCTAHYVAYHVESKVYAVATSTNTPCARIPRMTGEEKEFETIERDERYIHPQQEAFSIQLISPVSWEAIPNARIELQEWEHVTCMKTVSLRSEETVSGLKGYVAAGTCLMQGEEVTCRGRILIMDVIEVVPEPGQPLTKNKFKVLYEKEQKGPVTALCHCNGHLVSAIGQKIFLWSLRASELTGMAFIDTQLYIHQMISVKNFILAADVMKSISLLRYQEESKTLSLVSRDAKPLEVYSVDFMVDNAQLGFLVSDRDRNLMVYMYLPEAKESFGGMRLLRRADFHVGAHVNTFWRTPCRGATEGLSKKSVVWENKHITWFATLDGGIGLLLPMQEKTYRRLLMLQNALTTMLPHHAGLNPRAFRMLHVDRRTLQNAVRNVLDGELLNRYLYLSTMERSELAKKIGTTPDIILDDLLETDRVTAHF

- binding [1]: binds
Molecule: CNOT1, endogenous (from UniProt A5YKK6 1-2376)

- binding [2]: binds
B1: Cleavage stimulation factor subunit 3 (CSTF3), endogenous (protein, UniProt Q12996 1-717)
chain: MSGDGATEQAAEYVPEKVKKAEKKLEENPYDLDAWSILIREAQNQPIDKARKTYERLVAQFPSSGRFWKLYIEAEIKAKNYDKVEKLFQRCLMKVLHIDLWKCYLSYVRETKGKLPSYKEKMAQAYDFALDKIGMEIMSYQIWVDYINFLKGVEAVGSYAENQRITAVRRVYQRGCVNPMINIEQLWRDYNKYEEGINIHLAKKMIEDRSRDYMNARRVAKEYETVMKGLDRNAPSVPPQNTPQEAQQVDMWKKYIQWEKSNPLRTEDQTLITKRVMFAYEQCLLVLGHHPDIWYEAAQYLEQSSKLLAEKGDMNNAKLFSDEAANIYERAISTLLKKNMLLYFAYADYEESRMKYEKVHSIYNRLLAIEDIDPTLVYIQYMKFARRAEGIKSGRMIFKKAREDTRTRHHVYVTAALMEYYCSKDKSVAFKIFELGLKKYGDIPEYVLAYIDYLSHLNEDNNTRVLFERVLTSGSLPPEKSGEIWARFLAFESNIGDLASILKVEKRRFTAFKEEYEGKETALLVDRYKFMDLYPCSASELKALGYKDVSRAKLAAIIPDPVVAPSIVPVLKDEVDRKPEYPKPDTQQMIPFQPRHLAPPGLHPVPGGVFPVPPAAVVLMKLLPPPICFQGPFVQVDELMEIFRRCKIPNTVEEAVRIITGGAPELAVEGNGPVESNAVLTKAVKRPNEDSDEDEEKGAVVPPVHDIYRARQQKRIR
